# The exact form of at least one protein or probe is not confirmed.
# Test system: NbGlk1(83-402) (Nicotiana benthamiana)
# Test: fluorescence anisotropy
# Settings: DNA annealed in 150 mM NaCl, 15 mM Na citrate, binding buffer, recombinant protein
sequence,measurement,setting,value
CGGATATCCACGGATATCCACGGATATCCACGGATATCCACGGATATCCC (double strand) [FA-5/FA-6 concatenated GGATATCC GLK site duplex],binding result,"with NbDBCP-BD (293-414), binding not altered",binds
same,binding result,"with Rx1(GST-1-144) and NbDBCP-BD (293-414), BD causes no further change",binds
